Values from PubChem BioAssay AID1259254 (NCATS, 2017)
Purpose: 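Genome-wide screen for genes that prevent DNA re-replication in cancer cells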 (primary screen). System: human HCT116 colorectal cancer cells. Reagent: single siRNA against human genes. Timing: 3 days. Measurement: 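Imaged Hoechst DNA stain sorts each cell into a cycle phase by DNA amount; per plate, G2 fraction set to 0% for non-targeting and 100% for GMNN siRNA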. Reading the numbers: G2 robust z-score and G2 cells, % of GMNN control: higher = more G2 cells, more excess DNA replication. Rule for the call: 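Active siRNAs have a G2 robust z of 5 or more median absolute deviations over the median, which in these data means about 38% or higher of GMNN control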.
Here is a random part of about 59,000 reagents tested. Of all reagents, about 1,550 (2.6%) got an active call. 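G2 share is only a proxy for re-replication; each gene was hit by three separate siRNAs, and active genes were retested.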 Reagents against one gene are numbered here. Further read-outs or replicates are left out here. No sequences are given here. Not stated in the record: the amount of reagent.

For GRK5 (G protein-coupled receptor kinase 5) #1, how do the results read?
G2 robust z-score: -1.11; G2 cells, % of GMNN control: -4.86; activity call: inactive

Which result is listed for GRK5 (G protein-coupled receptor kinase 5) #2?
G2 robust z-score: -0.431; G2 cells, % of GMNN control: -0.0652; activity call: inactive

With GRK5 (G protein-coupled receptor kinase 5) #3, how do the results read?
G2 robust z-score: -0.408; G2 cells, % of GMNN control: 0.0988; activity call: inactive

What did the screen give for MFN1 (mitofusin 1) #1?
G2 robust z-score: 1.41; G2 cells, % of GMNN control: 12.9; activity call: inactive

For MFN1 (mitofusin 1) #2, what was measured?
G2 robust z-score: 2.16; G2 cells, % of GMNN control: 18.1; activity call: inactive

What is on record for MFN1 (mitofusin 1) #3?
G2 robust z-score: -0.764; G2 cells, % of GMNN control: -2.41; activity call: inactive

What is on record for TMEM222 (transmembrane protein 222) #1?
G2 robust z-score: -1.33; G2 cells, % of GMNN control: -6.37; activity call: inactive

What did the screen give for TMEM222 (transmembrane protein 222) #2?
G2 robust z-score: -0.908; G2 cells, % of GMNN control: -3.42; activity call: inactive

For TMEM222 (transmembrane protein 222) #3, how do the results read?
G2 robust z-score: -0.164; G2 cells, % of GMNN control: 1.81; activity call: inactive

What is on record for ZDHHC3 (zDHHC palmitoyltransferase 3) #1?
G2 robust z-score: -0.669; G2 cells, % of GMNN control: -1.74; activity call: inactive

What is on record for ZDHHC3 (zDHHC palmitoyltransferase 3) #2?
G2 robust z-score: -0.572; G2 cells, % of GMNN control: -1.06; activity call: inactive

For ZDHHC3 (zDHHC palmitoyltransferase 3) #3, what does the deposit list?
G2 robust z-score: -1.04; G2 cells, % of GMNN control: -4.32; activity call: inactive

With TNRC18P1 (trinucleotide repeat containing 18 pseudogene 1) #1, what does the deposit list?
G2 robust z-score: -0.104; G2 cells, % of GMNN control: 2.23; activity call: inactive

What is on record for TNRC18P1 (trinucleotide repeat containing 18 pseudogene 1) #2?
G2 robust z-score: 2.41; G2 cells, % of GMNN control: 20; activity call: inactive

How did the screen score TNRC18P1 (trinucleotide repeat containing 18 pseudogene 1) #3?
G2 robust z-score: 0.6; G2 cells, % of GMNN control: 7.19; activity call: inactive

What is on record for DISP1 (dispatched RND transporter family member 1) #1?
G2 robust z-score: -0.473; G2 cells, % of GMNN control: -0.363; activity call: inactive

What is on record for DISP1 (dispatched RND transporter family member 1) #2?
G2 robust z-score: -0.0487; G2 cells, % of GMNN control: 2.62; activity call: inactive

Which result is listed for DISP1 (dispatched RND transporter family member 1) #3?
G2 robust z-score: -0.257; G2 cells, % of GMNN control: 1.16; activity call: inactive

With GFY (golgi associated olfactory signaling regulator) #1, what does the deposit list?
G2 robust z-score: -0.324; G2 cells, % of GMNN control: 0.686; activity call: inactive

What did the screen give for GFY (golgi associated olfactory signaling regulator) #2?
G2 robust z-score: 0.322; G2 cells, % of GMNN control: 5.23; activity call: inactive

What did the screen give for GFY (golgi associated olfactory signaling regulator) #3?
G2 robust z-score: 1.72; G2 cells, % of GMNN control: 15.1; activity call: inactive

With KCNK9 (potassium two pore domain channel subfamily K member 9) #1, what was measured?
G2 robust z-score: -0.288; G2 cells, % of GMNN control: 0.939; activity call: inactive

What did the screen give for KCNK9 (potassium two pore domain channel subfamily K member 9) #2?
G2 robust z-score: 1.06; G2 cells, % of GMNN control: 10.4; activity call: inactive

For KCNK9 (potassium two pore domain channel subfamily K member 9) #3, how do the results read?
G2 robust z-score: -0.888; G2 cells, % of GMNN control: -3.28; activity call: inactive

Quoted from the listing, 3 entries:
TMEM222 (transmembrane protein 222) #1 — G2 robust z-score: -1.33; G2 cells, % of GMNN control: -6.37; activity call: inactive
TMEM222 (transmembrane protein 222) #2 — G2 robust z-score: -0.908; G2 cells, % of GMNN control: -3.42; activity call: inactive
TMEM222 (transmembrane protein 222) #3 — G2 robust z-score: -0.164; G2 cells, % of GMNN control: 1.81; activity call: inactive
